Hit rate of the full screen: of about 340,000 compounds, about 4,500 (1.3%) were called active. The inconclusive results got no clear call from the source; some entries with a clear call stand among them for comparison. The call rests on the fitted dose curve; in most records, active means well fitted inhibition curve with a large enough effect; inconclusive means small, poorly fitted or top-dose-only effect, or another doubt; inactive means no such curve, though single readings can be large or run the other way. Where the call is inconclusive, the potency comes from a doubtful curve fit.
The molecules below were run against DNA polymerase beta (Homo sapiens) (UniProt P06746) (assay: qHTS Assay for Inhibitors of DNA Polymerase Beta). Conditions: Pol beta primer extension/strand displacement, fluorescence kinetic; activity change, negative = inhibition: at 114 µM (top of the series).
Summary of the method: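 Preincubation: enzyme (10 nM) with compound, 15 min, RT. Reaction: substrate added to 50 nM final. Reads: 0 and 10 min. Analysis: normalized, Hill fit.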
On the % scale 0 is the no-effect control and ±100 the full control effect; potency means the concentration at half of the fitted maximal effect.

Potency, inconclusive:
CCCCCC(=O)N1CC2(CC)CN(C(=O)CCCCC)CC(CC)(C1)C2=O 70.8 µM [inhibitor, single point], O=c1c2ccccc2nc(/C=C/c2c[nH]c3ccccc23)n1CCO 22.4 µM [inhibitor, partial curve, poor fit], O=C(NCCSc1ccc(Cl)cc1)c1ccco1 2 µM [inhibitor, full curve], Cc1cc(NC(=O)CSc2nnc(Nc3ccccc3F)s2)no1 17.8 µM [inhibitor, single point], CCCCOc1c(Br)cc(/C=N/O)cc1OCC 28.2 µM [inhibitor, full curve, poor fit], CC(C)c1ccc2[nH]c3nc(SCC(=O)N4CCOCC4)nnc3c2c1 56.2 µM [inhibitor, partial curve, poor fit], COc1ccccc1CNC(=O)CSc1nc(C)cs1 89.1 µM [inhibitor, single point], O=c1nc(Nc2ccccc2)sc2ccc([N+](=O)[O-])cc12 15.8 µM [inhibitor, partial curve], COC(=O)c1ccc2c(c1)N(CC(=O)Nc1ccc(C)cc1Cl)C(=O)c1ccccc1S2 89.1 µM [inhibitor, single point], CCc1ccc(C(=O)/C=C/c2ccc([N+](=O)[O-])o2)cc1 0.141 µM [inhibitor, full curve, poor fit], CCC(=O)c1ccc(OCC(O)CN2CC(C)OC(C)C2)cc1 (stereo unspecified) 2.51 µM [inhibitor, full curve]

Potency, active:
O=C(O)c1cccc(N2C(=O)c3ccc(Oc4ccc(Cl)cc4)cc3C2=O)c1 89.1 µM, O=C1Nc2ccccc2/C1=N\N=C\c1ccc(O)c(O)c1 4.47 µM, COc1ccc(Cl)cc1NC(=O)CCn1nc(C)cc1C 31.6 µM, C=CCn1c(SCC(=O)Nc2nnc(C)s2)nnc1C1CC1 25.1 µM, O=C(NCCc1ccc(Cl)cc1)c1cc2c(s1)-c1ccccc1OC2 35.5 µM

Activity change, negative = inhibition, inactive:
COc1cc(OC)cc(C(=O)Nc2cccc(-c3cn4ccsc4n3)c2)c1 4.5%, CCc1cccc(C)c1NC(=O)c1cc(S(=O)(=O)N2CCN(c3ccccc3)CC2)ccc1F -23.9%, Cc1ccc(-n2c(-c3ccccc3)n[nH]c2=S)cc1 9.42%, COc1cc(OC)c2c(C)c(CC(=O)NCc3ccccc3OC)c(=O)oc2c1 -10.8%

Activity change, negative = inhibition, inconclusive:
CC(C)c1nnc(NC(=O)c2cc3cc(Br)ccc3oc2=O)s1 -33.2% [inhibitor]

Reference: PubChem BioAssay AID485314 (National Center for Advancing Translational Sciences (NCATS), 2010)
